Source: paper PMC11724082
No constants are given. Whether binding was seen depends on the method and setting. Binding seen in cells or lysates may run through a third protein. Some binding calls cover weakened binding; strength is not graded here.

By UniProt entry, the sequences of proteins in these tests, tags left out.
UniProt P17931: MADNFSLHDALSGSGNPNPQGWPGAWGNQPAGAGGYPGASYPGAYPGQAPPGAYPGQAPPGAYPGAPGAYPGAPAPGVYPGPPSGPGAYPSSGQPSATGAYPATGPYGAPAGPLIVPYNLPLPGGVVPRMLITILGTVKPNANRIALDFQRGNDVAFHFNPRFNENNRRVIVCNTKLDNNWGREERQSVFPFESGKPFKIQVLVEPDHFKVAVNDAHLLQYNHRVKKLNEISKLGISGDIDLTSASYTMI

Target: T1, USP15 (UniProt Q9Y4E8)
T1 sequence: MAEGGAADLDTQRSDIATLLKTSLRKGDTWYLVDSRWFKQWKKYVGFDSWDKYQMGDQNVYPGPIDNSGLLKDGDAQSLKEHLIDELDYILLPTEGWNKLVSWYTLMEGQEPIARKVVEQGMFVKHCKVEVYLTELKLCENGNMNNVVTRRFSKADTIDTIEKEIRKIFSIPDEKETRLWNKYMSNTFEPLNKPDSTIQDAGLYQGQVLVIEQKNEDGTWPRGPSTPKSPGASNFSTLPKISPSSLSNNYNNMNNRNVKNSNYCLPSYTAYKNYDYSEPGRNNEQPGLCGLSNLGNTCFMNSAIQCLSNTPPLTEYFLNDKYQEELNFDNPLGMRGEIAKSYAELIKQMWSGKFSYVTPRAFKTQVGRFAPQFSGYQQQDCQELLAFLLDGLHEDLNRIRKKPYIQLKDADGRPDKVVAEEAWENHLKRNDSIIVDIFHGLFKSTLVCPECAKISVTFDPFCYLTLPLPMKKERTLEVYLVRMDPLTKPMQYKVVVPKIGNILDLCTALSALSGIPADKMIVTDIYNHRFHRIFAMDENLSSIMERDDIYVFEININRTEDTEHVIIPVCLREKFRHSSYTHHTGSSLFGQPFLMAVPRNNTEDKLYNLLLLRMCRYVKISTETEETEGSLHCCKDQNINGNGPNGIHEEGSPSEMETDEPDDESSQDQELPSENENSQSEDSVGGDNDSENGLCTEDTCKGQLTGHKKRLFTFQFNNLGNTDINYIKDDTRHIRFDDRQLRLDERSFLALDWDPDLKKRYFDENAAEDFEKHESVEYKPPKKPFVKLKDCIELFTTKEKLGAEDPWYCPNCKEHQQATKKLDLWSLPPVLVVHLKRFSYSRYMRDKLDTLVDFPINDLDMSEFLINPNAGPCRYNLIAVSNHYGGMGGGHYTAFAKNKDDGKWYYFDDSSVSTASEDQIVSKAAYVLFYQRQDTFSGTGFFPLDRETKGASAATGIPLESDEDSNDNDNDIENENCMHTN
Assay: co-IP; co-immunoprecipitation of USP15 and LGALS3 from HCC cells; details in Additional File 2 (not shown)

In the case of LGALS3 (from UniProt P17931 1-250), the binding is reported as “binds”.
